Laboratory results: article PMC9743537

Target: TLR4 protein (endogenous, HK-2 cells) (human (endogenous in HK-2))
Test: co-IP; HK-2 cell lysate (500 ug total protein), antibody overnight at 4 C, protein A/G beads, washed 5x with lysis buffer, Western blot; results and legend: IP with anti-TLR4 antibody, blot for mindin and TLR4 (methods describe IP with anti-mindin antibody, blot for TLR4)

binding: binds
B1: mindin protein (endogenous, HK-2 cells) (protein, UniProt Q9BUD6 27-331)
chain: QPLGGESICSARALAKYSITFTGKWSQTAFPKQYPLFRPPAQWSSLLGAAHSSDYSMWRKNQYVSNGLRDFAERGEAWALMKEIEAAGEALQSVHAVFSAPAVPSGTGQTSAELEVQRRHSLVSFVVRIVPSPDWFVGVDSLDLCDGDRWREQAALDLYPYDAGTDSGFTFSSPNFATIPQDTVTEITSSSPSHPANSFYYPRLKALPPIARVTLVRLRQSPRAFIPPAPVLPSRDNEIVDSASVPETPLDCEVSLWSSWGLCGGHCGRLGTKSRTRYVRVQPANNGSPCPELEEEAECVPDNCV

No constants are given. Whether binding was seen depends on the method and setting. Binding seen in cells or lysates may run through a third protein. Binding can be weak; no strength is given.
